# Laboratory results published in patent US20140113876A1, “BIOMARKERS FOR ASSESSING TREATMENT OF SIALIC ACID DEFICIENCY DISEASES AND CONDITIONS” (ULTRAGENYX PHARMACEUTICAL INC., priority 2012, published 2014).
# System: HIBM patients
# Assay: Phase 2 clinical trial: baseline serum biomarker levels in 47 HIBM patients vs 126 normal controls (Human Discovery MAP250+ immunoassay)
# Format: in vivo
# Details: for change in mean (HIBM/nomral) / change in median (HIBM/normal): fold, HIBM patients vs normal controls; for HIBM Mean / HIBM Median / Normal Mean / Normal Median: serum level; for HIBM Mean / HIBM Median: 47 HIBM patients, baseline; for Normal Mean / Normal Median: 126 normal controls
Molecule,change in mean (HIBM/nomral) (Table 12),change in median (HIBM/normal) (Table 12),change in mean (HIBM/nomral) (Table 13),change in median (HIBM/normal) (Table 13),HIBM Mean (Table 12),HIBM Median (Table 12),HIBM Mean (Table 13),HIBM Median (Table 13),Normal Mean (Table 12),Normal Median (Table 12),Normal Mean (Table 13),Normal Median (Table 13)
Brain-Derived Neurotrophic Factor (BDNF),34.58,50.06,34.58,50.06,19.72 ng/mL,20.00 ng/mL,19.72 ng/mL,20.00 ng/mL,0.57 ng/mL,0.40 ng/mL,0.57 ng/mL,0.40 ng/mL
Creatine Kinase-MB (CK-MB),11.37,10.90,11.37,10.90,12.36 ng/mL,8.70 ng/mL,12.36 ng/mL,8.70 ng/mL,1.1 ng/mL,0.80 ng/mL,1.1 ng/mL,0.80 ng/mL
Epidermal Growth Factor (EGF),23.55,53.22,23.55,53.22,0.27828 ng/mL,0.248 ng/mL,0.27828 ng/mL,0.248 ng/mL,0.012 ng/mL,0.0047 ng/mL,0.012 ng/mL,0.0047 ng/mL
Epithelial-Derived Neutrophil-Activating Protein 78 (ENA-78),6.42,6.85,6.42,6.85,2.46 ng/mL,2.00 ng/mL,2.46 ng/mL,2.00 ng/mL,0.38 ng/mL,0.29 ng/mL,0.38 ng/mL,0.29 ng/mL
Hepatocyte Growth Factor (HGF),4.59,5.04,4.59,5.04,14.18 ng/mL,13.00 ng/mL,14.18 ng/mL,13.00 ng/mL,3.1 ng/mL,2.6 ng/mL,3.1 ng/mL,2.6 ng/mL
Latency-Associated Peptide of Transforming Growth Factor beta 1 (LAP TGF-b1),9.75,11.14,9.75,11.14,10.63 ng/mL,11.00 ng/mL,10.63 ng/mL,11.00 ng/mL,1.1 ng/mL,0.99 ng/mL,1.1 ng/mL,0.99 ng/mL
Matrix Metalloproteinase-1 (MMP-1),6.89,7.24,6.89,7.24,7.93 ng/mL,6.90 ng/mL,7.93 ng/mL,6.90 ng/mL,1.2 ng/mL,0.95 ng/mL,1.2 ng/mL,0.95 ng/mL
Platelet-Derived Growth Factor BB (PDGF-BB),57.62,93.41,57.62,93.41,15.63191 ng/mL,15.6 ng/mL,15.63191 ng/mL,15.6 ng/mL,0.271 ng/mL,0.167 ng/mL,0.271 ng/mL,0.167 ng/mL
Receptor tyrosine-protein kinase erbB-3 (ErbB3),0.29,0.14,0.29,0.14,0.62 ng/mL,0.31 ng/mL,0.62 ng/mL,0.31 ng/mL,2.2 ng/mL,2.3 ng/mL,2.2 ng/mL,2.3 ng/mL
T-Cell-Specific Protein RANTES (RANTES),12.69,17.14,12.69,17.14,18.26 ng/mL,18.00 ng/mL,18.26 ng/mL,18.00 ng/mL,1.4 ng/mL,1.1 ng/mL,1.4 ng/mL,1.1 ng/mL
Thrombospondin-1,11.19,16.34,11.19,16.34,9800.64 ng/mL,9540.00 ng/mL,9800.64 ng/mL,9540.00 ng/mL,876 ng/mL,584 ng/mL,876 ng/mL,584 ng/mL
"Vascular Endothelial Growth Factor C (VEGF-C) (protein, UniProt P49767 112-227, looked up) Vascular endothelial growth …: AHYNTEILKSIDNEWRKTQCMPREVCIDVGKEFGVATNTFFKPPCVSVYRCGGCCNSEGLQCMNTSTSYLSKTLFEITVPLSQGPKPVTISFANHTSCRCMSKLDVYRQVHSIIRR",9.07,9.60,9.07,9.60,35.32 ng/mL,36.00 ng/mL,35.32 ng/mL,36.00 ng/mL,3.9 ng/mL,3.8 ng/mL,3.9 ng/mL,3.8 ng/mL
"Myoglobin (protein, UniProt P02144 2-154, looked up) Myoglobin: GLSDGEWQLVLNVWGKVEADIPGHGQEVLIRLFKGHPETLEKFDKFKHLKSEDEMKASEDLKKHGATVLTALGGILKKKGHHEAEIKPLAQSHATKHKIPVKYLEFISECIIQVLQSKHPGDFGADAQGAMNKALELFRKDMASNYKELGFQG",10.16,8.81,10.16,8.81,152.09 ng/mL,100.00 ng/mL,152.09 ng/mL,100.00 ng/mL,15 ng/mL,11 ng/mL,15 ng/mL,11 ng/mL
"Neuron-Specific Enolase (NSE) (protein, UniProt P09104 2-434, looked up) Gamma-enolase: SIEKIWAREILDSRGNPTVEVDLYTAKGLFRAAVPSGASTGIYEALELRDGDKQRYLGKGVLKAVDHINSTIAPALISSGLSVVEQEKLDNLMLELDGTENKSKFGANAILGVSLAVCKAGAAERELPLYRHIAQLAGNSDLILPVPAFNVINGGSHAGNKLAMQEFMILPVGAESFRDAMRLGAEVYHTLKGVIKDKYGKDATNVGDEGGFAPNILENSEALELVKEAIDKAGYTEKIVIGMDVAASEFYRDGKYDLDFKSPTDPSRYITGDQLGALYQDFVRDYPVVSIEDPFDQDDWAAWSKFTANVGIQIVGDDLTVTNPKRIERAVEEKACNCLLLKVNQIGSVTEAIQACKLAQENGWGVMVSHRSGETEDTFIADLVVGLCTGQIKTGAPCRSERLAKYNQLMRIEEELGDEARFAGHNFRNPSVL",0.18,0.11,,,2.51 ng/mL,1.10 ng/mL,,,14 ng/mL,10 ng/mL,,
